Measurements taken from patent publication US20080027001A1, “NOGO RECEPTOR FUNCTIONAL MOTIFS, PEPTIDE MIMETICS, AND MUTATED FUNCTIONAL MOTIFS RELATED THERETO, AND METHODS OF USING THE SAME” (priority 2006, published 2008).
These are yes or no findings as the source states them, for the method shown. In cells and extracts the contact can be indirect. Some entries that bind do so weakly or less than the wild type.

By UniProt entry, the sequences of proteins in these tests, tags left out. Residues count along the entry.
UniProt P08138, residues 29-427: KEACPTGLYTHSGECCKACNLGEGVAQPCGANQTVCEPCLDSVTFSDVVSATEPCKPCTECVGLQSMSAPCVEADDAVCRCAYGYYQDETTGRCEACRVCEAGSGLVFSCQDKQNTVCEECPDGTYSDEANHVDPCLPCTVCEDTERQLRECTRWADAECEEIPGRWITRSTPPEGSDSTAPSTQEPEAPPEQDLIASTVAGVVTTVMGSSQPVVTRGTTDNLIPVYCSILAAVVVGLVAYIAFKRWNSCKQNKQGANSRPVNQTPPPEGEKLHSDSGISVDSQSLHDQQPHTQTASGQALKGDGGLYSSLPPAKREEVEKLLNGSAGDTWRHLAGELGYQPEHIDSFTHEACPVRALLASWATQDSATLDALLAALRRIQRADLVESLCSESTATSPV

Assays:
[1] = target: human p75 neurotrophin receptor (p75NTR) expressed in CHO-K1 cells (human) (UniProt P08138); experiment: co-immunoprecipitation with goat anti-human NgR1 antibody from co-transfected CHO-K1 cells, Western blot for p75NTR
[2] = target: human p75 neurotrophin receptor (p75NTR) expressed in CHO-K1 cells (human) (UniProt P08138); experiment: co-immunoprecipitation with goat anti-human NgR1 antibody from co-transfected CHO-K1 cells, Western blot for p75NTR (control experiments)

| Binder | binding [1] | binding [2] |
| --- | --- | --- |
| mutant NgR1 EM7 (K277D/R279D) (receptor, human, UniProt Q9BZR6 27-447, looked up) CPGACVCYNEPKVTTSCPQQGLQAVPVGIPAASQRIFLHGNRISHVPAASFRACRNLTILWLHSNVLARIDAAAFTGLALLEQLDLSDNAQLRSVDPATFHGLGRLHTLHLDRCGLQELGPGLFRGLAALQYLYLQDNALQALPDDTFRDLGNLTHLFLHGNRISSVPERAFRGLHSLDRLLLHQNRVAHVHPHAFRDLGRLMTLYLFANNLSALPTEALAPLRALQYLRLNDNPWVCDCRARPLWAWLQDFDGSSSEVPCSLPQRLAGRDLKRLAANDLQGCAVATGPYHPIWTGRATDEEPLGLPKCCQPDAADKASVLEPGRPASAGNALKGRVPPGDSPPGNGSGPRHINDSPFGTLPGSAEPPLTAVRPEGSEPPGFPTSGPRRRPGCSRKNRTRSHCRLGQAGSGGGGTGDSEGS | binds |  |
| mutant NgR1 EM8 (K277A, R279A) (receptor, human, UniProt Q9BZR6 27-447, looked up) CPGACVCYNEPKVTTSCPQQGLQAVPVGIPAASQRIFLHGNRISHVPAASFRACRNLTILWLHSNVLARIDAAAFTGLALLEQLDLSDNAQLRSVDPATFHGLGRLHTLHLDRCGLQELGPGLFRGLAALQYLYLQDNALQALPDDTFRDLGNLTHLFLHGNRISSVPERAFRGLHSLDRLLLHQNRVAHVHPHAFRDLGRLMTLYLFANNLSALPTEALAPLRALQYLRLNDNPWVCDCRARPLWAWLQAFAGSSSEVPCSLPQRLAGRDLKRLAANDLQGCAVATGPYHPIWTGRATDEEPLGLPKCCQPDAADKASVLEPGRPASAGNALKGRVPPGDSPPGNGSGPRHINDSPFGTLPGSAEPPLTAVRPEGSEPPGFPTSGPRRRPGCSRKNRTRSHCRLGQAGSGGGGTGDSEGS | binds |  |
| mutant NgR1 EM10 (K277A) (receptor, human, UniProt Q9BZR6 27-447, looked up) CPGACVCYNEPKVTTSCPQQGLQAVPVGIPAASQRIFLHGNRISHVPAASFRACRNLTILWLHSNVLARIDAAAFTGLALLEQLDLSDNAQLRSVDPATFHGLGRLHTLHLDRCGLQELGPGLFRGLAALQYLYLQDNALQALPDDTFRDLGNLTHLFLHGNRISSVPERAFRGLHSLDRLLLHQNRVAHVHPHAFRDLGRLMTLYLFANNLSALPTEALAPLRALQYLRLNDNPWVCDCRARPLWAWLQAFRGSSSEVPCSLPQRLAGRDLKRLAANDLQGCAVATGPYHPIWTGRATDEEPLGLPKCCQPDAADKASVLEPGRPASAGNALKGRVPPGDSPPGNGSGPRHINDSPFGTLPGSAEPPLTAVRPEGSEPPGFPTSGPRRRPGCSRKNRTRSHCRLGQAGSGGGGTGDSEGS | binds |  |
| mutant NgR1 EM11 (R279A) (receptor, human, UniProt Q9BZR6 27-447, looked up) CPGACVCYNEPKVTTSCPQQGLQAVPVGIPAASQRIFLHGNRISHVPAASFRACRNLTILWLHSNVLARIDAAAFTGLALLEQLDLSDNAQLRSVDPATFHGLGRLHTLHLDRCGLQELGPGLFRGLAALQYLYLQDNALQALPDDTFRDLGNLTHLFLHGNRISSVPERAFRGLHSLDRLLLHQNRVAHVHPHAFRDLGRLMTLYLFANNLSALPTEALAPLRALQYLRLNDNPWVCDCRARPLWAWLQKFAGSSSEVPCSLPQRLAGRDLKRLAANDLQGCAVATGPYHPIWTGRATDEEPLGLPKCCQPDAADKASVLEPGRPASAGNALKGRVPPGDSPPGNGSGPRHINDSPFGTLPGSAEPPLTAVRPEGSEPPGFPTSGPRRRPGCSRKNRTRSHCRLGQAGSGGGGTGDSEGS | binds |  |
| wild type human Nogo Receptor 1 (NgR1), full-length, expressed in cells (receptor, UniProt Q9BZR6 27-447, looked up) CPGACVCYNEPKVTTSCPQQGLQAVPVGIPAASQRIFLHGNRISHVPAASFRACRNLTILWLHSNVLARIDAAAFTGLALLEQLDLSDNAQLRSVDPATFHGLGRLHTLHLDRCGLQELGPGLFRGLAALQYLYLQDNALQALPDDTFRDLGNLTHLFLHGNRISSVPERAFRGLHSLDRLLLHQNRVAHVHPHAFRDLGRLMTLYLFANNLSALPTEALAPLRALQYLRLNDNPWVCDCRARPLWAWLQKFRGSSSEVPCSLPQRLAGRDLKRLAANDLQGCAVATGPYHPIWTGRATDEEPLGLPKCCQPDAADKASVLEPGRPASAGNALKGRVPPGDSPPGNGSGPRHINDSPFGTLPGSAEPPLTAVRPEGSEPPGFPTSGPRRRPGCSRKNRTRSHCRLGQAGSGGGGTGDSEGS |  | binds |
